# Reference: the supplement of paper PMC10689618
# Some of the results follow. Many values rest on one well or one pass, so single values are uncertain.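 Labelled rat cortical synaptosomes were engulfed by primary human fetal astrocytes. Engulfment equaled a red/green ratio, corrected for calcein live-cell signal and normalized to the plate median. Compounds were toxic when calcein dropped over 30%, and reduced phagocytosis when below 70% of the median above 5 µM.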
# Experiments:
# Human fetal astrocytes [1] = assay: loss of total cells relative to no-compound high-control median (toxicity); higher = more toxic (fewer cells); details: 24 h
# Human fetal astrocytes [2] = assay: synaptosome phagocytosis (pHrodo/calcein intensity ratio) relative to plate median of data wells; higher = more phagocytosis; details: 24 h
Compound,loss of total cells (Human fetal astrocytes [1]; 1.39 µM) [%],loss of total cells (Human fetal astrocytes [1]; 2.78 µM) [%],loss of total cells (Human fetal astrocytes [1]; 5.56 µM) [%],loss of total cells (Human fetal astrocytes [1]; 11.11 µM) [%],loss of total cells (Human fetal astrocytes [1]; 22.22 µM) [%],synaptosome phagocytosis (Human fetal astrocytes [2]; 1.39 µM) [%],synaptosome phagocytosis (Human fetal astrocytes [2]; 2.78 µM) [%],synaptosome phagocytosis (Human fetal astrocytes [2]; 5.56 µM) [%],synaptosome phagocytosis (Human fetal astrocytes [2]; 11.11 µM) [%],synaptosome phagocytosis (Human fetal astrocytes [2]; 22.22 µM) [%]
CC(=O)O[C@H]1C(=O)[C@@]2(C)[C@H]([C@H](OC(=O)c3ccccc3)[C@]3(O)C[C@H](O)C(C)=C1C3(C)C)[C@]1(OC(C)=O)CO[C@@H]1C[C@@H]2O [Baccatin III],-0.4,3.2,3.6,11.3,0.8,111,81.3,83.6,103,120
CC[C@@H](C(=O)[C@@H](C)[C@@H](O)[C@H](C)[C@@H]1O[C@@H]([C@@H](CC)C(=O)O)CC[C@@H]1C)[C@H]1O[C@]2(C=C[C@@H](O)[C@]3(CC[C@@](C)([C@H]4CC[C@](O)(CC)[C@H](C)O4)O3)O2)[C@H](C)C[C@@H]1C,13.4,11.2,12.3,18.8,13.6,112,54.7,52,59.8,9.3
CC(C)(N)Cc1ccccc1,-43.5,-18.3,9.3,47.5,1.6,77.7,98.6,126,132,89.2
O=c1cccc2n1CC1CC2CN2CCCC[C@@H]12 (stereo not given in full),-34.4,-0.4,2.9,6.8,-0.7,61.8,90.3,105,93.1,77.9
CCn1cc(C(=O)O)c(=O)c2cc3c(cc21)OCO3 [Oxolinic acid],-23.2,-21,-0.9,-15.6,13,97.3,81.4,97.5,90.5,109
C=C(C)[C@H]1Cc2c(ccc3c(=O)c4c(oc23)COc2cc(OC)c(OC)cc2-4)O1,36.6,-12.6,19.1,46.5,13,115,79.8,77.8,117,137
CCCC(C)C1(CC)C(=O)NC(=O)NC1=O (stereo not given),-12.4,-32.6,0.3,-9.4,11.3,97.4,73.4,108,91.2,101
C=C[C@H]1CN2CC[C@H]1C[C@@H]2[C@@H](O)c1ccnc2ccccc12,-2.1,-3.1,7,2,-7,102,76.9,89.5,102,90.9
COc1cc(OC)c(OC)cc1C=O,10.5,8,-7.6,29.7,-2.6,116,111,111,130,103
CC(C)c1cc2c(c(O)c1O)[C@@]1(C(=O)O)CCCC(C)(C)[C@@H]1CC2,-1.6,10.5,-0.7,19.6,24.4,109,102,127,76.1,88
C[C@]12C=CC(=O)C=C1CC[C@@H]1[C@@H]2CC[C@]2(C)C(=O)CC[C@@H]12,1.6,-7.6,-1.5,2,18.5,151,103,109,86.6,122
CN(C)[C@@H]1C(=O)C(C(N)=O)=C(O)[C@@]2(O)C(=O)C3=C(O)c4c(O)cccc4[C@@](C)(O)[C@H]3C[C@@H]12,-11,-16.6,-2.1,1.4,-12.5,93.5,74.5,91.1,99.8,100
CC(C)CC(N(C)C)C1(c2ccc(Cl)cc2)CCC1 (stereo not given) [Sibutramine],-32.3,-5.6,0.6,22.6,2.8,79.9,119,104,106,117
Nc1ncn[nH]1,-18,9,-5.9,6.1,0,108,114,92.3,109,96.3
COc1ccc2c(c1O)-c1c(OC)c(OC)cc3c1[C@H](C2)N(C)CC3,4,17.7,-0.7,8.8,3.8,39.4,72.5,86.6,47.5,30.9
OCC(O)Cc1ccc2c(c1)OCO2 (stereo not given),3.3,-4,3.8,52.3,-11.5,90.2,112,88.5,128,102

# An excerpt from above in order of formula weight, rising:
Compound,loss of total cells (Human fetal astrocytes [1]; 1.39 µM) [%],loss of total cells (Human fetal astrocytes [1]; 2.78 µM) [%],loss of total cells (Human fetal astrocytes [1]; 5.56 µM) [%],loss of total cells (Human fetal astrocytes [1]; 11.11 µM) [%],loss of total cells (Human fetal astrocytes [1]; 22.22 µM) [%],synaptosome phagocytosis (Human fetal astrocytes [2]; 1.39 µM) [%],synaptosome phagocytosis (Human fetal astrocytes [2]; 2.78 µM) [%],synaptosome phagocytosis (Human fetal astrocytes [2]; 5.56 µM) [%],synaptosome phagocytosis (Human fetal astrocytes [2]; 11.11 µM) [%],synaptosome phagocytosis (Human fetal astrocytes [2]; 22.22 µM) [%]
C=C[C@H]1CN2CC[C@H]1C[C@@H]2[C@@H](O)c1ccnc2ccccc12,-2.1,-3.1,7,2,-7,102,76.9,89.5,102,90.9
CC(=O)O[C@H]1C(=O)[C@@]2(C)[C@H]([C@H](OC(=O)c3ccccc3)[C@]3(O)C[C@H](O)C(C)=C1C3(C)C)[C@]1(OC(C)=O)CO[C@@H]1C[C@@H]2O [Baccatin III],-0.4,3.2,3.6,11.3,0.8,111,81.3,83.6,103,120
CC[C@@H](C(=O)[C@@H](C)[C@@H](O)[C@H](C)[C@@H]1O[C@@H]([C@@H](CC)C(=O)O)CC[C@@H]1C)[C@H]1O[C@]2(C=C[C@@H](O)[C@]3(CC[C@@](C)([C@H]4CC[C@](O)(CC)[C@H](C)O4)O3)O2)[C@H](C)C[C@@H]1C,13.4,11.2,12.3,18.8,13.6,112,54.7,52,59.8,9.3

# The listing continues.

Compound,loss of total cells (Human fetal astrocytes [1]; 1.39 µM) [%],loss of total cells (Human fetal astrocytes [1]; 2.78 µM) [%],loss of total cells (Human fetal astrocytes [1]; 5.56 µM) [%],loss of total cells (Human fetal astrocytes [1]; 11.11 µM) [%],loss of total cells (Human fetal astrocytes [1]; 22.22 µM) [%],synaptosome phagocytosis (Human fetal astrocytes [2]; 1.39 µM) [%],synaptosome phagocytosis (Human fetal astrocytes [2]; 2.78 µM) [%],synaptosome phagocytosis (Human fetal astrocytes [2]; 5.56 µM) [%],synaptosome phagocytosis (Human fetal astrocytes [2]; 11.11 µM) [%],synaptosome phagocytosis (Human fetal astrocytes [2]; 22.22 µM) [%]
CCCC(C)(COC(N)=O)COC(=O)NC(C)C (stereo not given) [Carisoprodol],-21.6,-12.5,2.1,-36.7,-14.7,136,74.2,119,112,97.7
CC[C@@H](C)C(=O)O[C@H]1[C@H](O)[C@H]2[C@@H](CN3C[C@@H](C)CC[C@H]3[C@@]2(C)O)[C@@H]2C[C@]34O[C@]5(O)[C@@H](OC(=O)[C@@](C)(O)CC)CC[C@@]3(C)[C@@H]5[C@@H](OC(C)=O)[C@@H](OC(C)=O)[C@H]4[C@@]21O,-0.4,-4.7,23.2,-6.3,-1.5,105,84.3,105,118,133
C[N+]1(C)CCc2cc3c(cc2[C@H]1[C@@H]1OC(=O)c2c1ccc1c2OCO1)OCO3,-13.9,-4.7,-10.3,-4.1,-5.9,99.3,142,110,64.5,109
C[N+]1(C)CCCC(OC(=O)C(O)(c2ccccc2)c2ccccc2)C1 (stereo not given),0.9,-28.8,8.4,-1.4,-11.9,109,106,108,101,69.9
COP(=S)(OC)Oc1ccc(Sc2ccc(OP(=S)(OC)OC)cc2)cc1,-23.2,-0.9,3.3,-25,24.9,114,91.3,73.4,121,76.3
CC1CC(Cl)CCC1C(=O)OC(C)(C)C (stereo not given),3.2,26.4,21,10.5,3.8,81.2,66.5,104,100,124
C[C@]12CCC(=O)C=C1CCc1ccc(O)cc12,4.7,8,21.4,31.6,28.5,112,110,95.7,88.1,147
CC[C@H]1[C@@H]2C[C@H]3[C@@H]4N(C)c5ccccc5[C@]45C[C@@H]([C@@H]2[C@H]5O)N3[C@@H]1O,7.6,20.6,10.1,17.2,17.4,94.4,131,95,80.1,69.9
O=[N+]([O-])c1cc([As](=O)(O)O)ccc1O,10.4,0.3,-0.7,3.2,12.5,102,106,118,101,114
C=C(C)c1cc2cc(C(C)=O)c(O)cc2o1,-9.1,-10,27.5,45.2,-35.9,90.1,138,121,137,82.1
CC(C)=CCC[C@]1(C)C=Cc2c(O)c3c(c(CC=C(C)C)c2O1)O[C@]12C(=C[C@@H]4C[C@H]1C(C)(C)O[C@@]2(C/C=C(/C)C(N)=O)C4=O)C3=O,-22.1,-0.7,31.3,61.9,55.2,75.1,56,78.2,28.1,31.2
Cc1ccc(O)cc1.Cc1cccc(O)c1.Cc1ccccc1O,10.4,-28.8,-22.3,-6.6,-5.2,116,124,136,136,106
CC(=O)O[C@H]1C[C@H](O[C@H]2[C@@H](O)C[C@H](O[C@H]3[C@@H](O)C[C@H](O[C@H]4CC[C@@]5(C)[C@H](CC[C@@H]6[C@@H]5C[C@@H](O)[C@]5(C)[C@@H](C7=CC(=O)OC7)CC[C@]65O)C4)O[C@@H]3C)O[C@@H]2C)O[C@H](C)[C@H]1O[C@@H]1O[C@H](CO)[C@@H](O)[C@H](O)[C@H]1O,4.1,11.9,12.9,39.1,44.8,81.3,92,67.4,5.7,64.5
COc1cccc(C2(O)CCCCC2CN(C)C)c1 (stereo not given),17.4,1.5,3.9,-42.2,5.7,142,98.9,113,162,110
C[C@H]1O[C@H](O[C@H]2[C@H](O)[C@@H](O)[C@@H](O)[C@H](O)[C@@H]2O)[C@@H](N)C[C@@H]1NC(=N)C(=O)O,1.8,-0.4,8,5.4,0.8,89.7,113,96,125,153
O=C(O)CCC1NCC2CC1CN1CCCCC21 (stereo not given),-12.3,-11.9,0.7,26.4,16.3,126,125,116,158,144
